# Tested on: biofilm of five representative oral bacterial species: A. viscosus, L. casei, S. oralis, V. parvula and F. nucleatum
# Test: Example 1: healthy biofilm formation on saliva-coated HAP disks (absorbance at 610 nm after trypsin)
# Assay type: cell-based
# Details: compound 0.01 wt. %
# Experimental: 0.5″ Ca^2+-deficient hydroxyapatite (HAP) disks were coated with UV-sterilized human saliva overnight.
# After 1 hour, excess treatment was removed by aspiration and disks were inoculated with 1 ml of bacteria from a continuous culture system at an OD(600) of about 0.2. The continuous culture system was maintained for approximately three months at 37° C. and contained five representative oral bacterial species: A. viscosus, L. casei, S. oralis, V. parvula and F. nucleatum. Previous work has shown this mix to form repeatable biofilms that can serve as a representation of the more complex mix of 500-700 bacterial species found in dental plaque.
# The inoculated scHAP disks were incubated for 48 hours at 37° C. to allow a biofilm to form on them. After 48 hours of biofilm formation, disks were transferred to test tubes containing 1 ml of 0.25% trypsin solution. Disks were incubated at 37° C. with shaking for 45 minutes. The tubes were briefly vortexed to resuspend the bacteria, and the supernatants were then transferred to a fresh 24 well plate. Plates were […] for 2 minutes to pellet any residual HAP flakes and the supernatants were removed to fresh plates so that their absorbance could be measured at 610 nm. All samples were tested in triplicate and the average of the three wells was determined.
structure (smiles),measurement,setting,value
"CCCCCCCCCCCCCCCC[n+]1ccccc1 [CPC, cetylpyridinium chloride, reference compound]",% biofilm inhibition (B),"48 hours biofilm, reduction in absorbance relative to disks treated with media alone",32.69%
same,% biofilm inhibition efficiency (C),C=B/A×100%,50.00%

# Source: patent publication US11471394B2, “Oral care compositions containing deoxy sugar antimetabolites” (Colgate-Palmolive Company, priority 2013, dated 2022)
